According to US20030140381:
For at least one entry, the source does not settle the construct or the ends of the probe.

Chains of the proteins cited; added tags and fusions are not shown. A line that says so, or that is headed by a name, gives the form on record, which may keep a tag or linker.
ZmABI4 (maize ABI4, AP2-domain transcription factor) (Zea mays), one chain, as listed by the source: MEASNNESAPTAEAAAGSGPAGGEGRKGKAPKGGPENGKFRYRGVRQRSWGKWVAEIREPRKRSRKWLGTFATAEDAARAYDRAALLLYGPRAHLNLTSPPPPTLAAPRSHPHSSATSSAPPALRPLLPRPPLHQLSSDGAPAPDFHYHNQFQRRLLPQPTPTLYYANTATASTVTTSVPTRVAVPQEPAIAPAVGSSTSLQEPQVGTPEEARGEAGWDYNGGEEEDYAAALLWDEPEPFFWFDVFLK

Tested on: ZmABI4 (maize ABI4, AP2-domain transcription factor) (Zea mays)
Experiment: EMSA
Conditions: purified recombinant protein

## AGGAGTAATCCTAGTACAGTAGTACTACGTAGTAAAAATCTGTTGGACGATCGATCCAAGTGAAGCAGTGCATCAAAGAACGCTGCACACATCGATCTCGATCCTGTCCCTGCATGCATGCACGCACCGAGCAACGAAGCGCTGCACACAATGACACAAGCCAGTAAGTCAGAAGTCGATTGCTCCATCAACCGTATACTAGCTTAATTCCGCAATGACTCCGATGATCTACATGCTGGATTCCGCAATGACTCCGATGATCTACAGCATGCATGGCACACTCCCCCGGCCTCTACCACACCAACCAACAAGAATCTGGCTTTTTAAACTAGGTGAGAAAGATTCAAACACACCCGTTTTTATACGTTTTTGCAAAATTCTGAAAAAACTAGAAAACTGTTGATAGTAATTTTTGCCAGTTTCTCATAATCCAAAAAGAAACAAATAAAATCATTTACTGACACCCGAATACTGTATCAATTCTGGCTCGGAATCTACTAGATTTTATAGAAATTACAGACAAAAACTCTCTTTTTTTAATTCCGAAACTGATCTAAAGCTGCTCGCTGTACTGCACTATGCACTCTCTCACCTCCCTTTATATTTGACCACCGCCCCTCTCCACCAAGCGCATCCACCTCGACCTCCATCCCTAGCGCTCTCGCCCCAAAGCAC (double strand) [ZmABI4 upstream fragment 675 bp (-778 to -104)]
  binding result: binds
